The target of the assay is T1, GFP-Sec14L6 (human) (UniProt B5MCN3).
T1 sequence: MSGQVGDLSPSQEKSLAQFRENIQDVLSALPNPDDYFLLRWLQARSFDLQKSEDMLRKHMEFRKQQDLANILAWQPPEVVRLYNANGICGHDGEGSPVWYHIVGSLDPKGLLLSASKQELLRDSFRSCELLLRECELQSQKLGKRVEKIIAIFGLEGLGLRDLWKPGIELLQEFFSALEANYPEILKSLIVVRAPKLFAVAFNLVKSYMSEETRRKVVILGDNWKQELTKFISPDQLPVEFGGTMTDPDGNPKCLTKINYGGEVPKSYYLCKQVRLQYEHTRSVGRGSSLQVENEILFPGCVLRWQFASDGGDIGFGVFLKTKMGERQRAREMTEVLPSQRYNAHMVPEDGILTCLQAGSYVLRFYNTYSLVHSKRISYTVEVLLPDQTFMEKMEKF
As to the kind of experiment: affinity purification with mass spectrometry.

Results are given in words; binding and its absence hold for the method and conditions named. In cells and extracts the contact can be indirect. Here binding means that the protein was enriched with, or labelled near, the bait; the list need not be complete. Tags and fused reporters may be left off the sequences shown.

Regarding “PGRMC1 (endogenous, HEK293) (from UniProt O00264-1 1-195)”, the binding entry was “binds”.

These data come from paper doi:10.1101/2024.10.20.619318.
